In patent US8821862B2, “Soluble β-N-acetylglucosaminidase based antibiofilm compositions and uses thereof” (Kane Biotech Inc., priority 2002, dated 2014):

Test system: A. actinomycetemcomitans planktonic cells
Conditions: CPC 0.02%

Compound: CCCCCCCCCCCCCCCC[n+]1ccccc1 [CPC, cetylpyridinium chloride]
- 0.02% CPC as multiple of the MIC against planktonic cells: 10 times the MIC
